Measurements reported in PubChem BioAssay AID1259303 (Sanger Institute, 2017).
Here is a random part of 160 reagents tested. 11 of all reagents (6.9%) count as active. 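Viability capped at 1; how the synergy score is calculated is not stated; four separate siRNAs target each gene.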 A number with no mark means an inactive call. The numbers tell different reagents against one gene apart. Further read-outs or replicates are left out here. Not given: the amount of reagent, the time to read-out.

- Screen: 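Follow-up kinase siRNA test for drug synergy in colorectal cancer cells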 (follow-up of hits)
- Cells: human COLO320HSR colorectal cancer cells
- Knock-down reagent: single siRNA against human genes
- Conditions: anchor drug BYL719 (1 µM), cetuximab (5 µg/ml) or trametinib (10 nM), or DMSO vehicle alone
- Detection: 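Replicate-averaged viability relative to non-targeting pool 2 siRNA under DMSO; synergy scores against each drug alone for BYL719 1 µM, cetuximab 5 µg/ml or trametinib 10 nM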
- Reading the numbers: synergy score with BYL719: higher = stronger combined killing with BYL719; synergy score with cetuximab: higher = stronger combined killing with cetuximab; synergy score with trametinib: higher = stronger combined killing with trametinib
- Call rule: 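Called active if the synergy score tops 0.10 with BYL719, cetuximab or trametinib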
- Calls: active = synergy with at least one drug; inactive = no synergy found

CDK6 #1 scored synergy score with BYL719 = -0.197; synergy score with cetuximab 0.0136; synergy score with trametinib -0.216.
Knock-down of CDK6 #2 came out at: synergy score with BYL719 = -0.212; synergy score with cetuximab -0.123; synergy score with trametinib -0.387.
With knock-down of CDK6 #3, the record shows synergy score with BYL719 = -0.126; synergy score with cetuximab -0.0505; synergy score with trametinib -0.063.
After knock-down of CDK6 #4 the results were synergy score with BYL719 = -0.0796; synergy score with cetuximab -0.149; synergy score with trametinib -0.174.
Depletion of MPP3 #1 gave: synergy score with BYL719 = 0.0327; synergy score with cetuximab -0.0363; synergy score with trametinib -0.0363.
For MPP3 #2, the entry reads synergy score with BYL719 = -0.0765; synergy score with cetuximab 0.00121; synergy score with trametinib 0.0682.
Against MPP3 #3, the entry reads synergy score with BYL719 = -0.0177; synergy score with cetuximab 0; synergy score with trametinib 0.
MPP3 #4 showed synergy score with BYL719 = -0.0639; synergy score with cetuximab -0.129; synergy score with trametinib -0.12.
SYK #1 showed synergy score with BYL719 = -0.104; synergy score with cetuximab -0.0771; synergy score with trametinib -0.00846.
For SYK #2, the values are synergy score with BYL719 = -0.106 (active); synergy score with cetuximab 0.118; synergy score with trametinib -0.0607.
After knock-down of SYK #3, the screen gave synergy score with BYL719 = 0.0577; synergy score with cetuximab 0.0367; synergy score with trametinib 0.
SYK #4 showed synergy score with BYL719 = -0.196; synergy score with cetuximab 0; synergy score with trametinib 0.
With knock-down of BMPR2 #1, the screen gave synergy score with BYL719 = -0.303; synergy score with cetuximab 0; synergy score with trametinib 0.
With knock-down of BMPR2 #2, the screen gave synergy score with BYL719 = -0.247; synergy score with cetuximab 0.0383; synergy score with trametinib -0.107.
Knock-down of BMPR2 #3 resulted in: synergy score with BYL719 = -0.251; synergy score with cetuximab 0; synergy score with trametinib 0.
BMPR2 #4 gave synergy score with BYL719 = -0.165; synergy score with cetuximab 0; synergy score with trametinib 0.
Knock-down of STK36 #1 came out at: synergy score with BYL719 = -0.206; synergy score with cetuximab -0.153; synergy score with trametinib -0.432.
Knock-down of STK36 #2 gave: synergy score with BYL719 = -0.194; synergy score with cetuximab -0.197; synergy score with trametinib -0.193.
Silencing of STK36 #3 gave: synergy score with BYL719 = -0.367; synergy score with cetuximab 0.0286; synergy score with trametinib -0.102.
For STK36 #4 the deposit lists synergy score with BYL719 = -0.182; synergy score with cetuximab -0.223; synergy score with trametinib -0.246.
GTF2H1 #1 scored synergy score with BYL719 = -0.123; synergy score with cetuximab 0; synergy score with trametinib 0.
Depletion of GTF2H1 #2 came out at: synergy score with BYL719 = -0.172; synergy score with cetuximab -0.00168; synergy score with trametinib -0.00168.
With knock-down of GTF2H1 #3, the record shows synergy score with BYL719 = -0.168; synergy score with cetuximab 0.00148; synergy score with trametinib -0.046.
With knock-down of GTF2H1 #4, the screen gave synergy score with BYL719 = 0.0121; synergy score with cetuximab 0.0711; synergy score with trametinib 0.0458.
